Test in all cases: BLI
A general note: BLI is a label-free optical method that tracks binding on a fibre tip over time.

Sequences of proteins named here, by UniProt entry; tags and fusion partners are left off. Residues count along the entry.
UniProt P20827, residues 19-182: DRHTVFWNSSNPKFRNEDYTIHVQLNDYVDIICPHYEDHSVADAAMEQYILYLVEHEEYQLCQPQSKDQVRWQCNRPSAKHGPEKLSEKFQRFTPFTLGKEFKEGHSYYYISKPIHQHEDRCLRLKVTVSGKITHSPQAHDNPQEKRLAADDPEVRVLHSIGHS

The target of assay [1] is T1, Human EphA3-Fc ectodomain (human) (UniProt P29320).
T1 sequence: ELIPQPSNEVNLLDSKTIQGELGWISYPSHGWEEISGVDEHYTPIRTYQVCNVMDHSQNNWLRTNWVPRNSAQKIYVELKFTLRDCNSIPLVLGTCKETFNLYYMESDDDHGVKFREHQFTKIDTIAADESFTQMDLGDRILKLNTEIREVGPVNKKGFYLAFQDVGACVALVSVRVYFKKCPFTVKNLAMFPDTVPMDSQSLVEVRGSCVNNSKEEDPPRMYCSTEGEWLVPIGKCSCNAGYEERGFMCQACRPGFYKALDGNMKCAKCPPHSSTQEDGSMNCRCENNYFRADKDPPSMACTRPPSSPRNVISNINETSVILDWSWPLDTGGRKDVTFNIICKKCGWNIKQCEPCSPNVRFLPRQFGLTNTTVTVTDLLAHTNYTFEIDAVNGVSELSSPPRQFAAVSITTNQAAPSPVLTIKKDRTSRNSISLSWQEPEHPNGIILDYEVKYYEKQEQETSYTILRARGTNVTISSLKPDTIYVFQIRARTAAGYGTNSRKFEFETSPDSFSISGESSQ

Assay [2] deals with T2, Human EphrinB1-Fc ectodomain (human) (UniProt P98172).
T2 sequence: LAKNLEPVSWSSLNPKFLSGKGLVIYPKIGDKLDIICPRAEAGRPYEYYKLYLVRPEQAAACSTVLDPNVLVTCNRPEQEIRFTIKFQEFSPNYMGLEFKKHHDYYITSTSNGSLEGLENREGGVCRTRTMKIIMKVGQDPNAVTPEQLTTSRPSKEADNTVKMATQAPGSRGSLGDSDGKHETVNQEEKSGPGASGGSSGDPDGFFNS

The target of assay [3] is T3, Human EphrinB3-Fc ectodomain (human) (UniProt Q15768).
T3 sequence: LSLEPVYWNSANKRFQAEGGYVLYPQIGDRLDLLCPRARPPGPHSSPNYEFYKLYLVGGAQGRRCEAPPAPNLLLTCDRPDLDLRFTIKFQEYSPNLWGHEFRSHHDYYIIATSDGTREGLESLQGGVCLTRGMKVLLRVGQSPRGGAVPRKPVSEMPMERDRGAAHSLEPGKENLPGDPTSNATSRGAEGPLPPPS

Results are given in words; binding and its absence hold for the method and conditions named. Some entries that bind do so weakly or less than the wild type. Where a sequence is shown, tags or fusion partners need not be part of it.

“Human EphrinA1-His protein (from UniProt P20827 19-182) (domain or fragment)”: the binding result in assay [1] was “binds”.

B1: Human EphB4-His ectodomain (domain or fragment, UniProt P54760 16-539)
chain: LEETLLNTKLETADLKWVTFPQVDGQWEELSGLDEEQHSVRTYEVCDVQRAPGQAHWLRTGWVPRRGAVHVYATLRFTMLECLSLPRAGRSCKETFTVFYYESDADTATALTPAWMENPYIKVDTVAAEHLTRKRPGAEATGKVNVKTLRLGPLSKAGFYLAFQDQGACMALLSLHLFYKKCAQLTVNLTRFPETVPRELVVPVAGSCVVDAVPAPGPSPSLYCREDGQWAEQPVTGCSCAPGFEAAEGNTKCRACAQGTFKPLSGEGSCQPCPANSHSNTIGSAVCQCRVGYFRARTDPRGAPCTTPPSAPRSVVSRLNGSSLHLEWSAPLESGGREDLTYALRCRECRPGGSCAPCGGDLTFDPGPRDLVEPWVVVRGLRPDFTYTFEVTALNGVSSLATGPVPFEPVNVTTDREVPPAVSDIRVTRSSPSSLSLAWAVPRAPSGAVLDYEVKYHEKGAEGPSSVRFLKTSENRAELRGLKRGASYLVQVRARSEAGYGPFGQEHHSQTQLDESEGWREQLA
On to B1, for which the binding result in assay [2] and in assay [3] was “no binding (tested: 50 nM)” throughout.
